# Experimental data as given in the supplement of paper PMC10849652.
# Protein sequences, listed by entry. Tags and fused reporters are not part of them. Lines headed by an entry give the natural chain unless they say otherwise; changes in a name come on top.
# UniProt Q9NQT8: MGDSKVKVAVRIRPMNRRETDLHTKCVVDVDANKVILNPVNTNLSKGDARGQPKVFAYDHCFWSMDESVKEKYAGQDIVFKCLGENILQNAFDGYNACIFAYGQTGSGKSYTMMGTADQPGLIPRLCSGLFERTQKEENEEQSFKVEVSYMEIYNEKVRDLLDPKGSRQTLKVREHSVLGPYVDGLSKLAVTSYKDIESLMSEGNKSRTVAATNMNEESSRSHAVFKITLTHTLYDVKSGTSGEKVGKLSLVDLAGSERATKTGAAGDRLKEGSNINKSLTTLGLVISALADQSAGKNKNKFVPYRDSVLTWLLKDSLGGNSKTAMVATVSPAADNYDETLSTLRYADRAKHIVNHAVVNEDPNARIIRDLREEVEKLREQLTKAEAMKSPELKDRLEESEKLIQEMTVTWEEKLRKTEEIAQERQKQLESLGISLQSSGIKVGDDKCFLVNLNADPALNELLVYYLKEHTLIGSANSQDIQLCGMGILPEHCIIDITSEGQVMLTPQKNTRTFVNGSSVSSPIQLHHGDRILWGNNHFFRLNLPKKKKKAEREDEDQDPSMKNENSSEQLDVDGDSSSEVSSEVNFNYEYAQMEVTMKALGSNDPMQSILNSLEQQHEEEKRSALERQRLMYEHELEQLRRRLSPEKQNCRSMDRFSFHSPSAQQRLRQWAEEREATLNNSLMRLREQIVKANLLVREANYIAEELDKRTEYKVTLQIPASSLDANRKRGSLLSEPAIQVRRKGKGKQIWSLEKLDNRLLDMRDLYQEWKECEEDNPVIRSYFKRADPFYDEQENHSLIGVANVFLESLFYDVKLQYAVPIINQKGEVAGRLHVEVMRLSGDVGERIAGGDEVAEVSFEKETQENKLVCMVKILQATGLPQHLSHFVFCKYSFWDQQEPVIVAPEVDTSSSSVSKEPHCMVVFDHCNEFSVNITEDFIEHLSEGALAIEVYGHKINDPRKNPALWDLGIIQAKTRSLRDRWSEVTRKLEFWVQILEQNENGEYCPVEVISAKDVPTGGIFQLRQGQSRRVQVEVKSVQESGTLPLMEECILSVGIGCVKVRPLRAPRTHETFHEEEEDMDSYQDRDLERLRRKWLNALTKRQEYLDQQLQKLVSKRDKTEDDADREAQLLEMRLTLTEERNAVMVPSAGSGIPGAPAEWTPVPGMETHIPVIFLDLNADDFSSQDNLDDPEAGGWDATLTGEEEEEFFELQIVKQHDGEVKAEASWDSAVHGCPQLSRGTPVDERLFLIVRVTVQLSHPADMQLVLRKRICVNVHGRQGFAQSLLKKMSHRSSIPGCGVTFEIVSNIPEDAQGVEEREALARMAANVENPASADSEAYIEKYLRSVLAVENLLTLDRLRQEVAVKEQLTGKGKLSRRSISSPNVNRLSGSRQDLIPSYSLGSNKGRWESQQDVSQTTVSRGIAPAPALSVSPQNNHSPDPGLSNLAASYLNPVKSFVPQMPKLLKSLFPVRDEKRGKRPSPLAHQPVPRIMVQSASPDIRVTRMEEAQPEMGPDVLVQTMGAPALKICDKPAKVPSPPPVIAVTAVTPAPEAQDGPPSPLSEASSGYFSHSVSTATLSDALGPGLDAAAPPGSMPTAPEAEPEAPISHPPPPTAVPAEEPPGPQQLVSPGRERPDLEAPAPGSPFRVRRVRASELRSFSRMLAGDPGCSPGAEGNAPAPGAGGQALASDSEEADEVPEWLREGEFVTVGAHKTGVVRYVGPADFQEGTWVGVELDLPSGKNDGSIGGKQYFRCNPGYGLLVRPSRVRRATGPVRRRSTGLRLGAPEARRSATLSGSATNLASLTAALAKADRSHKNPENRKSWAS
# UniProt Q14667: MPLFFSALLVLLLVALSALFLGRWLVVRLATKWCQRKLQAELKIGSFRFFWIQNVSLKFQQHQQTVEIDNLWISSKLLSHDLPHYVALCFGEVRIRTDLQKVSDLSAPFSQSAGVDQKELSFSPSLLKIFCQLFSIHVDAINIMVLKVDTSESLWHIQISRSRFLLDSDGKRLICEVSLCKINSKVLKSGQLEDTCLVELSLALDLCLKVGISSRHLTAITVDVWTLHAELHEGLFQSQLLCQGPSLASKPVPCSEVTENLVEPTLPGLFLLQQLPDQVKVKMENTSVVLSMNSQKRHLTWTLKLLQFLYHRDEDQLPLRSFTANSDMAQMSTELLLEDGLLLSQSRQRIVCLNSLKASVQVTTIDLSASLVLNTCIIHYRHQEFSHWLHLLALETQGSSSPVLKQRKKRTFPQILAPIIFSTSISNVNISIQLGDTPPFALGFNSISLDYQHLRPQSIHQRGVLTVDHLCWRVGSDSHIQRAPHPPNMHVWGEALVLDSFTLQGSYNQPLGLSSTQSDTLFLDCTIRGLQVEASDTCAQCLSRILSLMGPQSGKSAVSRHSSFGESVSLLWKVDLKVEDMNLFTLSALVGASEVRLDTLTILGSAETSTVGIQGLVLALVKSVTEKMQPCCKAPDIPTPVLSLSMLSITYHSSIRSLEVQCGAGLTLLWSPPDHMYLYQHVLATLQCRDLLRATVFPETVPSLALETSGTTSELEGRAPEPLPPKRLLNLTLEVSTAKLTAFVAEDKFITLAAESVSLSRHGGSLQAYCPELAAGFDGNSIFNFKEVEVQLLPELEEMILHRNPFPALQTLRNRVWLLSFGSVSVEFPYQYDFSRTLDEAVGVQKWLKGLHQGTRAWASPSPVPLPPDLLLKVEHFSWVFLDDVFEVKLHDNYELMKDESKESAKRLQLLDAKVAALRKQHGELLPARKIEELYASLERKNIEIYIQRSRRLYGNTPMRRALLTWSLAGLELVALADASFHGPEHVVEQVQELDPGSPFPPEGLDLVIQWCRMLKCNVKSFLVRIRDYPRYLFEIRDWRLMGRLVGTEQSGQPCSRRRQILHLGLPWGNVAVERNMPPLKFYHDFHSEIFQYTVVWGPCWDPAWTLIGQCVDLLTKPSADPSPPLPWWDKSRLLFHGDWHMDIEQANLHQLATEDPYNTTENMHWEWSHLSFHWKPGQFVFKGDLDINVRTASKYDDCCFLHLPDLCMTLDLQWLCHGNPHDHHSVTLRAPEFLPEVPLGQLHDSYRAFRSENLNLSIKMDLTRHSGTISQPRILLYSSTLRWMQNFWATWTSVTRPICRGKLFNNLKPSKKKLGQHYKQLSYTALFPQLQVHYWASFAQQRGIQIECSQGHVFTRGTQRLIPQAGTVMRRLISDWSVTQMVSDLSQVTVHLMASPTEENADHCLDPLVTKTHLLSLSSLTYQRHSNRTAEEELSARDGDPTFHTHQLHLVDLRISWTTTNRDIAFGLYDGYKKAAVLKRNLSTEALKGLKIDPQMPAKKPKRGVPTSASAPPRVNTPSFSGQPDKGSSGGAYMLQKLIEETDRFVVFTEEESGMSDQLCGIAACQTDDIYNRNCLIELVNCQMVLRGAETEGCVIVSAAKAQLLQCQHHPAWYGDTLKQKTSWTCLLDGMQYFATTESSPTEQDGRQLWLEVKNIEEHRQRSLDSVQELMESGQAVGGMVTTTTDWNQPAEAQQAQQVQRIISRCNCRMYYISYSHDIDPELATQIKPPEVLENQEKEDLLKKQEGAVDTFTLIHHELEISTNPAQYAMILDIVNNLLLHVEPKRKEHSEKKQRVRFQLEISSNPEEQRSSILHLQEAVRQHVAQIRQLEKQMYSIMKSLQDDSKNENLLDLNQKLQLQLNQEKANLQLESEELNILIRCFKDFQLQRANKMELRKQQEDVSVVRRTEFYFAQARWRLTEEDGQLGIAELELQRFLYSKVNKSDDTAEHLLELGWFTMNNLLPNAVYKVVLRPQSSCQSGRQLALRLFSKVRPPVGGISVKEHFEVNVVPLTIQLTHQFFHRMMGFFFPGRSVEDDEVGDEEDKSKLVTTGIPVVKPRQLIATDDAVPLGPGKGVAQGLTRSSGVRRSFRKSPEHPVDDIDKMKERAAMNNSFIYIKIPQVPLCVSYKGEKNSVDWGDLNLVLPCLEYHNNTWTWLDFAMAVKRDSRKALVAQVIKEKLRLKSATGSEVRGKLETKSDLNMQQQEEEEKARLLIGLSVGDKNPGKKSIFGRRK
# UniProt Q9NS86: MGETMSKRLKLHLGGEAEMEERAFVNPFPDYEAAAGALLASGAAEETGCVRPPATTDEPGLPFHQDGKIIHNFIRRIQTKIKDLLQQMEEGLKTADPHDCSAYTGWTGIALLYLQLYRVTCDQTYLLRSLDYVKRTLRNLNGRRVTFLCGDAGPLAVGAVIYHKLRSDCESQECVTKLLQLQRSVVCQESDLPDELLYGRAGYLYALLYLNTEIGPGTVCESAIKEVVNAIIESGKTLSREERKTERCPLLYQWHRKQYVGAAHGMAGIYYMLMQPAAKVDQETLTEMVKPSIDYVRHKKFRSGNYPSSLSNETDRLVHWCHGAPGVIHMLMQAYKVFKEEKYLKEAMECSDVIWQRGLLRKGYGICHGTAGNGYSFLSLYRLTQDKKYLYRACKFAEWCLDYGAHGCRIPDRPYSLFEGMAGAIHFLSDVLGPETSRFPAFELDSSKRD
# UniProt Q9HCI6: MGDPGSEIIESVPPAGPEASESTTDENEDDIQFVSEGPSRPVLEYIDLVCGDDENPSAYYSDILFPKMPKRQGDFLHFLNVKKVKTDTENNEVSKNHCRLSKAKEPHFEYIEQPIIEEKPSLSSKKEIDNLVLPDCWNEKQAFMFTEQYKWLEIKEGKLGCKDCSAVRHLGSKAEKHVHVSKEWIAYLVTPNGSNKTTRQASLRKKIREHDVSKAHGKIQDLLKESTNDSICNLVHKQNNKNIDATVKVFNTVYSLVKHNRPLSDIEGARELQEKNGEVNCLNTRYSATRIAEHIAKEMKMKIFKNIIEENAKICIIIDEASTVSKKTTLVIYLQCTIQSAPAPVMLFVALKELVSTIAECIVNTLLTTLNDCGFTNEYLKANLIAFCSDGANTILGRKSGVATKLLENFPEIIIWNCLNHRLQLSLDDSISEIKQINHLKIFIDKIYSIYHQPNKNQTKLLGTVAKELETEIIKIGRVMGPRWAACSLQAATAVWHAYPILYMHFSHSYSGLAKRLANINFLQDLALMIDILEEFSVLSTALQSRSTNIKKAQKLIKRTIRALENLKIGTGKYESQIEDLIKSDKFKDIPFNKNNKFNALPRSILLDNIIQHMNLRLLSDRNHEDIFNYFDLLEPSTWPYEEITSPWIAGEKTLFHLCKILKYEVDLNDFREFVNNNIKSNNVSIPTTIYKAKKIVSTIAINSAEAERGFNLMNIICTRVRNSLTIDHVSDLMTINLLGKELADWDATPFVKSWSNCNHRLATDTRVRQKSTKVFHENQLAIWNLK
# UniProt Q8NA19: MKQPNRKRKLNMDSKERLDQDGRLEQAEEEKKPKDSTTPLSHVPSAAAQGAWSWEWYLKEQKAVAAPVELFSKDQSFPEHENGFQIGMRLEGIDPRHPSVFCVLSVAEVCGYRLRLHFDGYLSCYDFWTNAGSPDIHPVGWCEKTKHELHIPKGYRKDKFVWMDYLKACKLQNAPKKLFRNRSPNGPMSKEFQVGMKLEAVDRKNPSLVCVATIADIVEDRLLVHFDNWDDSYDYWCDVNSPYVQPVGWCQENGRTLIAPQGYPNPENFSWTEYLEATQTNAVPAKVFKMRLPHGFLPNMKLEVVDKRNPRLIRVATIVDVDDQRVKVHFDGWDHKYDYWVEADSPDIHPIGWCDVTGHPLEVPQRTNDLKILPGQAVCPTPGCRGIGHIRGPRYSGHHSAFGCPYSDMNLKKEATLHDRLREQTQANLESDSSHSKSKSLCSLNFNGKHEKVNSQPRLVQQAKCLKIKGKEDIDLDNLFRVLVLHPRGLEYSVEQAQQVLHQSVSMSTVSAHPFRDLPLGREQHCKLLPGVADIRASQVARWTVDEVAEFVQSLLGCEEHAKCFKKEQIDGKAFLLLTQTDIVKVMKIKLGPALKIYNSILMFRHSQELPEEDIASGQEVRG
# Some of the results follow.
# Assays:
# Assay in all cases: log2 fold change, soluble protein after heating vs DMSO (PISA); higher = thermal stabilisation; K562 lysate, 10 uM; active = over 0.2 and 3.5 SD of the protein, either way, in both replicates (recomputed)
# nilotinib = compound: Cc1cn(-c2cc(NC(=O)c3ccc(C)c(Nc4nccc(-c5cccnc5)n4)c3)cc(C(F)(F)F)c2)cn1 [nilotinib]
# Summary of the method: (§1)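 Soluble protein was defined as the supernatant remaining after 21,000xg for 90 min, following pooling of heated aliquots and adjustment to 0.5% NP-40 at 4°C. Before that, crude K562 extract at 1 mg/mL protein in PBS pH 7.4 with 1 mM MgCl2 was treated with 10 μM compound for 30 min and heated for 3 min across 48°C-58°C. Quantification used TMTpro 16plex LC-MS/MS with channel sums equalised, and values are log-two fold changes in thermal stability relative to solvent controls from duplicates.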
# [1] = compound: Cc1nc(Nc2n[nH]c3c2CN(C(=O)N[C@H](CN(C)C)c2ccccc2)C3(C)C)c2sccc2n1
# Summary of the method: as §1
# dasatinib = compound: Cc1nc(Nc2ncc(C(=O)Nc3c(C)cccc3Cl)s2)cc(N2CCN(CCO)CC2)n1 [dasatinib]
# Summary of the method: as §1
# [2] = compound: Cc1ncc(-c2ccnc(Nc3ccc(S(C)(=O)=O)cc3)n2)n1C(C)C
# Summary of the method: as §1
# [3] = compound: Cn1cc(-c2ccc3c(c2)CCN3C(=O)Cc2cccc(C(F)(F)F)c2)c2c(N)ncnc21
# Summary of the method: as §1
# quisinostat = compound: Cn1cc(CNCC2CCN(c3ncc(C(=O)NO)cn3)CC2)c2ccccc21 [quisinostat]
# Summary of the method: as §1
# tipifarnib = compound: Cn1cncc1[C@@](N)(c1ccc(Cl)cc1)c1ccc2c(c1)c(-c1cccc(Cl)c1)cc(=O)n2C [tipifarnib]
# Summary of the method: as §1
# [4] = compound: NC(=O)Nc1cc(-c2cccc(F)c2)sc1C(=O)N[C@H]1CCCNC1
# Summary of the method: as §1
# [5] = compound: NC(=O)c1cnc(N[C@@H]2CCCC[C@@H]2N)nc1Nc1cccc(-n2nccn2)c1
# Summary of the method: as §1
# [6] = compound: NC1(c2ccc(-c3nc4ccn5c(=O)[nH]nc5c4cc3-c3ccccc3)cc2)CCC1
# Summary of the method: as §1
# [7] = compound: NCC(=O)Nc1ccc(-n2nc(C(F)(F)F)cc2-c2ccc3c(ccc4ccccc43)c2)cc1
# Summary of the method: as §1
# vorinostat = compound: O=C(CCCCCCC(=O)Nc1ccccc1)NO [vorinostat]
# Summary of the method: as §1
# silmitasertib = compound: O=C(O)c1ccc2c(c1)nc(Nc1cccc(Cl)c1)c1ccncc12 [silmitasertib]
# Summary of the method: as §1
# [8] = compound: O=C1NC(=O)C(c2cnc3ccccn23)=C1c1cn2c3c(cc(F)cc13)CN(C(=O)N1CCCCC1)CC2
# Summary of the method: as §1
# entospletinib = compound: c1cn2cc(-c3ccc4cn[nH]c4c3)nc(Nc3ccc(N4CCOCC4)cc3)c2n1 [entospletinib]
# Summary of the method: as §1
Target,log2 fold change (nilotinib),log2 fold change [1],log2 fold change (dasatinib),log2 fold change [2],log2 fold change [3],log2 fold change (quisinostat),log2 fold change (tipifarnib),log2 fold change [4],log2 fold change [5],log2 fold change [6],log2 fold change [7],log2 fold change (vorinostat),log2 fold change (silmitasertib),log2 fold change [8],log2 fold change (entospletinib)
KIF13B (UniProt Q9NQT8),inactive: 0.055,inactive: 0.001,inactive: -0.006,inactive: -0.02,inactive: 0.002,inactive: 0.008,inactive: 0.028,inactive: 0.017,inactive: 0.007,inactive: 0.029,inactive: -0.009,inactive: -0.265,inactive: 0.019,inactive: -0.081,inactive: -0.02
KSR1 (UniProt Q8IVT5),inactive: 0,inactive: -0.04,inactive: -0.106,inactive: 0.056,inactive: 0.057,inactive: -0.015,inactive: -0.116,inactive: 0.069,inactive: 0.051,inactive: 0.003,inactive: 0.029,active: -0.49,inactive: 0.081,inactive: 0.031,inactive: -0.025
KDM5C (UniProt P41229),inactive: -0.021,inactive: -0.005,inactive: -0.032,inactive: 0.022,inactive: 0.033,inactive: -0.084,inactive: 0.037,inactive: 0.032,inactive: -0.037,inactive: -0.032,inactive: 0.039,active: -0.282,inactive: 0.015,inactive: 0,inactive: 0.003
KIF23 isoform 2 (UniProt Q02241),inactive: -0.005,inactive: -0.039,inactive: -0.014,inactive: 0.002,inactive: 0.015,inactive: -0.108,inactive: 0.021,inactive: -0.001,inactive: 0.033,inactive: -0.007,inactive: -0.002,inactive: -0.111,inactive: -0.015,inactive: -0.047,inactive: 0.047
KIF21A isoform 5 (UniProt Q7Z4S6),inactive: 0.011,inactive: 0.036,inactive: 0.001,inactive: 0,inactive: 0.001,inactive: -0.011,inactive: -0.048,inactive: 0.048,inactive: -0.009,inactive: -0.028,inactive: 0.005,active: -0.239,inactive: -0.004,inactive: 0.007,inactive: -0.058
KIN (UniProt O60870),inactive: -0.005,inactive: 0.033,inactive: -0.028,inactive: -0.043,inactive: 0.044,inactive: -0.078,inactive: -0.003,inactive: -0.036,inactive: 0.04,inactive: -0.077,inactive: -0.045,inactive: -0.116,inactive: 0.027,inactive: 0.005,inactive: 0.033
KIF5A (UniProt Q12840),inactive: -0.001,inactive: -0.028,inactive: -0.012,inactive: -0.003,inactive: 0.013,inactive: -0.021,inactive: 0.055,inactive: 0,inactive: -0.008,inactive: -0.003,inactive: -0.007,inactive: -0.132,inactive: 0.033,inactive: -0.013,inactive: 0.022
KIAA0100 (UniProt Q14667),inactive: 0.105,inactive: 0.003,inactive: 0.003,inactive: -0.073,inactive: 0.013,inactive: -0.06,inactive: -0.084,inactive: -0.013,inactive: 0.044,inactive: 0.042,inactive: 0.05,inactive: -0.231,inactive: -0.03,inactive: -0.026,inactive: 0.075
LAMB1 (UniProt P07942),inactive: -0.012,inactive: 0.034,inactive: 0.008,inactive: 0.023,inactive: 0.026,inactive: -0.031,inactive: 0.008,inactive: 0.024,inactive: 0.037,inactive: 0.005,inactive: -0.007,inactive: 0.086,inactive: -0.016,inactive: -0.018,inactive: -0.014
LANCL2 (UniProt Q9NS86),inactive: 0.008,inactive: 0.016,inactive: 0.021,inactive: 0.035,inactive: 0.02,inactive: -0.024,inactive: 0.002,inactive: 0.007,inactive: 0.016,inactive: -0.002,inactive: 0.001,inactive: -0.029,inactive: -0.018,inactive: -0.058,inactive: 0.008
KEAP1 (UniProt Q14145),inactive: -0.01,inactive: 0.01,inactive: -0.023,inactive: -0.014,inactive: -0.044,inactive: -0.078,inactive: -0.02,inactive: 0.011,inactive: 0.022,inactive: -0.002,inactive: -0.019,active: -0.262,inactive: -0.008,inactive: -0.022,inactive: 0.001
KPNA6 (UniProt O60684),inactive: -0.035,inactive: 0.012,inactive: -0.009,inactive: 0.003,inactive: 0.013,inactive: -0.035,inactive: -0.011,inactive: 0.004,inactive: 0.001,inactive: 0,inactive: -0.065,inactive: -0.182,inactive: 0.068,inactive: -0.005,inactive: -0.021
LARP4B (UniProt Q92615),inactive: -0.05,inactive: 0.03,inactive: -0.053,inactive: -0.02,inactive: 0.012,inactive: -0.026,inactive: 0,inactive: 0.026,inactive: -0.001,inactive: 0.008,inactive: 0.019,active: -0.306,inactive: 0.032,inactive: -0.028,inactive: -0.011
KIF13A isoform 4 (UniProt Q9H1H9),inactive: -0.023,inactive: 0.06,inactive: 0.018,inactive: 0.009,inactive: 0.005,inactive: 0.001,inactive: 0.067,inactive: 0.042,inactive: -0.014,inactive: -0.116,inactive: 0,inactive: 0.033,inactive: -0.013,inactive: -0.004,inactive: -0.034
KRIT1 (UniProt O00522),inactive: -0.011,inactive: -0.04,inactive: 0.027,inactive: 0.041,inactive: -0.048,inactive: -0.147,inactive: -0.135,inactive: 0.09,inactive: 0.021,inactive: -0.005,inactive: -0.125,inactive: -0.046,inactive: -0.013,inactive: -0.02,inactive: 0.012
KDM6A (UniProt O15550),inactive: 0.009,inactive: 0.033,inactive: 0.041,inactive: -0.009,inactive: 0.015,inactive: -0.062,inactive: -0.031,inactive: 0.002,inactive: -0.017,inactive: 0.009,inactive: 0.026,active: -0.299,inactive: -0.059,inactive: -0.009,inactive: -0.02
KIF1C (UniProt O43896),inactive: -0.076,inactive: -0.048,–,inactive: 0.173,–,inactive: -0.11,inactive: 0.129,inactive: 0.165,inactive: 0.001,inactive: -0.102,inactive: -0.201,inactive: -0.508,inactive: 0.083,inactive: 0.057,inactive: 0.001
KISS1R (UniProt Q969F8),inactive: 0.042,inactive: -0.099,–,inactive: -0.005,–,inactive: -0.262,inactive: -0.014,inactive: 0.053,–,–,–,–,–,inactive: 0,–
KIAA1586 (UniProt Q9HCI6),inactive: 0,inactive: 0.229,inactive: 0.044,inactive: -0.088,inactive: -0.01,–,inactive: -0.213,–,–,inactive: -0.015,inactive: 0.085,inactive: -0.129,inactive: -0.035,–,–
L3MBTL4 (UniProt Q8NA19),inactive: -0.048,inactive: 0.054,–,inactive: 0.141,–,inactive: -0.109,inactive: 0.02,inactive: 0.026,inactive: -0.03,–,inactive: 0.013,–,–,inactive: 0.05,inactive: -0.132
KIF26A (UniProt Q9ULI4),inactive: 0.035,inactive: -0.013,inactive: 0.003,inactive: 0.01,inactive: 0.014,inactive: -0.092,inactive: 0.226,inactive: -0.078,–,inactive: -0.091,inactive: -0.01,inactive: -0.178,inactive: 0.068,inactive: -0.016,inactive: 0.057
KIF21A (UniProt H0YI78),inactive: 0.067,inactive: -0.005,inactive: 0.044,inactive: 0.143,inactive: 0.055,–,inactive: -0.069,–,inactive: 0.104,inactive: 0.082,–,inactive: -0.113,inactive: -0.016,–,–

# Single records, as listed above. Values in the order: log2 fold change (nilotinib)	log2 fold change [1]	log2 fold change (dasatinib)	log2 fold change [2]	log2 fold change [3]	log2 fold change (quisinostat)	log2 fold change (tipifarnib)	log2 fold change [4]	log2 fold change [5]	log2 fold change [6]	log2 fold change [7]	log2 fold change (vorinostat)	log2 fold change (silmitasertib)	log2 fold change [8]	log2 fold change (entospletinib)
# KISS1R (UniProt Q969F8) as listed: inactive: 0.042	inactive: -0.099	–	inactive: -0.005	–	inactive: -0.262	inactive: -0.014	inactive: 0.053	–	–	–	–	–	inactive: 0	–
# KIF13A isoform 4 (UniProt Q9H1H9) as listed: inactive: -0.023	inactive: 0.06	inactive: 0.018	inactive: 0.009	inactive: 0.005	inactive: 0.001	inactive: 0.067	inactive: 0.042	inactive: -0.014	inactive: -0.116	inactive: 0	inactive: 0.033	inactive: -0.013	inactive: -0.004	inactive: -0.034
